These are yes or no findings as the source states them, for the method shown. In cells and extracts the contact can be indirect. Some results given as binding are weak or reduced against the parent protein; the word gives no strength.

The chains behind the UniProt entries cited, without tags or fusion partners.
UniProt P40763: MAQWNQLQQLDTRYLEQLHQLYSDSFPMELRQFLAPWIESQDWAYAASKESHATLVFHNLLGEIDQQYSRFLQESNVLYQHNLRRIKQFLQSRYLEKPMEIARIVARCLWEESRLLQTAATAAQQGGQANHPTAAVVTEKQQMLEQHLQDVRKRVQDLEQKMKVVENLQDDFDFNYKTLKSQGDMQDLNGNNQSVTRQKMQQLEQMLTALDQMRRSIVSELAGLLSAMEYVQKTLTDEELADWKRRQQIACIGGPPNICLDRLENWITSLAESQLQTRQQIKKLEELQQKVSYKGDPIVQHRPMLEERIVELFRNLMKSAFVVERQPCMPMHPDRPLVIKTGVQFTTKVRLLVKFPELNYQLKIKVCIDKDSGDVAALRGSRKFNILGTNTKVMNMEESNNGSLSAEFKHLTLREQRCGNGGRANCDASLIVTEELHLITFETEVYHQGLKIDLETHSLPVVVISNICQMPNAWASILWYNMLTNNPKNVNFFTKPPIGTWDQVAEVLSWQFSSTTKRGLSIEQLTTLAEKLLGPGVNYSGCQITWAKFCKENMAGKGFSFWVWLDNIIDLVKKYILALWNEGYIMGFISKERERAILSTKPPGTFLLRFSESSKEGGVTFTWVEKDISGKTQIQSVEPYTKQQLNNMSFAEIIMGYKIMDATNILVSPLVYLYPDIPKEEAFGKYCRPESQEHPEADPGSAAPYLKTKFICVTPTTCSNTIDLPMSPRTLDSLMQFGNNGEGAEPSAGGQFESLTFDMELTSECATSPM

One assay deals with T1, Jak2 545-848 aa fragment (UniProt O60674).
T1 sequence: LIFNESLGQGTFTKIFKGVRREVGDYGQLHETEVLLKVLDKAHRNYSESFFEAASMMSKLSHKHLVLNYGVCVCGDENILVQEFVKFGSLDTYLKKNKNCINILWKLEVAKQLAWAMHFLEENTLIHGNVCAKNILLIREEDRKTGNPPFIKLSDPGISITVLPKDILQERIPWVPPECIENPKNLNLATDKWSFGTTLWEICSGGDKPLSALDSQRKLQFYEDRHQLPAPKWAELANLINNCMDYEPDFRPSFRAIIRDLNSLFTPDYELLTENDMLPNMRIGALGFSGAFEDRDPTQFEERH
Put plainly: co-IP; Jak2 segments made according to the domains of Jak2, co-IP with Prkci; cells and tags not told.

Assay [1] concerns the target Jak2 (human (endogenous in HT29 and RKO)) (UniProt O60674). Description: co-IP; lysates of HT29 and RKO cells in NP-40 lysis buffer, pre-cleared with protein A/G beads, primary antibody then fresh beads, Western blot; which protein was precipitated is not told. (In general: In western blotting, separated proteins are transferred to a membrane and probed.)
Assay [2] concerns the target Stat3 (human (endogenous in HT29 and RKO)) (UniProt P40763). The assay is described as above.

B1: Protein kinase C iota (Prkci) (enzyme, UniProt P41743 1-596)
chain: MPTQRDSSTMSHTVAGGGSGDHSHQVRVKAYYRGDIMITHFEPSISFEGLCNEVRDMCSFDNEQLFTMKWIDEEGDPCTVSSQLELEEAFRLYELNKDSELLIHVFPCVPERPGMPCPGEDKSIYRRGARRWRKLYCANGHTFQAKRFNRRAHCAICTDRIWGLGRQGYKCINCKLLVHKKCHKLVTIECGRHSLPQEPVMPMDQSSMHSDHAQTVIPYNPSSHESLDQVGEEKEAMNTRESGKASSSLGLQDFDLLRVIGRGSYAKVLLVRLKKTDRIYAMKVVKKELVNDDEDIDWVQTEKHVFEQASNHPFLVGLHSCFQTESRLFFVIEYVNGGDLMFHMQRQRKLPEEHARFYSAEISLALNYLHERGIIYRDLKLDNVLLDSEGHIKLTDYGMCKEGLRPGDTTSTFCGTPNYIAPEILRGEDYGFSVDWWALGVLMFEMMAGRSPFDIVGSSDNPDQNTEDYLFQVILEKQIRIPRSLSVKAASVLKSFLNKDPKERLGCHPQTGFADIQGHPFFRNVDWDMMEQKQVVPPFKPNISGEFGLDNFDSQFTNEPVQLTPDDDDIVRKIDQSEFEGFEYINPLLMSAEECV
Regarding B1, the binding result in the assay with Jak2 545-848 aa fragment was “binds”; in assay [1], “binds”; in assay [2], “no binding”.

The values above are taken from PMC12396398.
